From patent publication US9624758B2, “Use of oligo-quaternary compositions to increase scale inhibitor lifetime in a subterranean formation” (Ecolab USA Inc., priority 2012, dated 2017)

Test: Static adsorption test on Ottawa sand
Details: with Product A versus scale inhibitor alone

Molecule | Percentage Absorption Increase [%]
O=P(O)(O)CN(CCCCCCN(CP(=O)(O)O)CP(=O)(O)O)CCCCCCN(CP(=O)(O)O)CP(=O)(O)O [Product B, BHMT phosphonate] | 82.5
DETA phosphonate [Product C] | 74.8
